Experimental data: publication PMC4257004
Results are given in words; binding and its absence hold for the method and conditions named. In cells and extracts the contact can be indirect. Some entries that bind do so weakly or less than the wild type. Where a sequence is shown, tags or fusion partners need not be part of it.

By UniProt entry, the sequences of proteins in these tests, tags left out.
UniProt Q9VDJ9: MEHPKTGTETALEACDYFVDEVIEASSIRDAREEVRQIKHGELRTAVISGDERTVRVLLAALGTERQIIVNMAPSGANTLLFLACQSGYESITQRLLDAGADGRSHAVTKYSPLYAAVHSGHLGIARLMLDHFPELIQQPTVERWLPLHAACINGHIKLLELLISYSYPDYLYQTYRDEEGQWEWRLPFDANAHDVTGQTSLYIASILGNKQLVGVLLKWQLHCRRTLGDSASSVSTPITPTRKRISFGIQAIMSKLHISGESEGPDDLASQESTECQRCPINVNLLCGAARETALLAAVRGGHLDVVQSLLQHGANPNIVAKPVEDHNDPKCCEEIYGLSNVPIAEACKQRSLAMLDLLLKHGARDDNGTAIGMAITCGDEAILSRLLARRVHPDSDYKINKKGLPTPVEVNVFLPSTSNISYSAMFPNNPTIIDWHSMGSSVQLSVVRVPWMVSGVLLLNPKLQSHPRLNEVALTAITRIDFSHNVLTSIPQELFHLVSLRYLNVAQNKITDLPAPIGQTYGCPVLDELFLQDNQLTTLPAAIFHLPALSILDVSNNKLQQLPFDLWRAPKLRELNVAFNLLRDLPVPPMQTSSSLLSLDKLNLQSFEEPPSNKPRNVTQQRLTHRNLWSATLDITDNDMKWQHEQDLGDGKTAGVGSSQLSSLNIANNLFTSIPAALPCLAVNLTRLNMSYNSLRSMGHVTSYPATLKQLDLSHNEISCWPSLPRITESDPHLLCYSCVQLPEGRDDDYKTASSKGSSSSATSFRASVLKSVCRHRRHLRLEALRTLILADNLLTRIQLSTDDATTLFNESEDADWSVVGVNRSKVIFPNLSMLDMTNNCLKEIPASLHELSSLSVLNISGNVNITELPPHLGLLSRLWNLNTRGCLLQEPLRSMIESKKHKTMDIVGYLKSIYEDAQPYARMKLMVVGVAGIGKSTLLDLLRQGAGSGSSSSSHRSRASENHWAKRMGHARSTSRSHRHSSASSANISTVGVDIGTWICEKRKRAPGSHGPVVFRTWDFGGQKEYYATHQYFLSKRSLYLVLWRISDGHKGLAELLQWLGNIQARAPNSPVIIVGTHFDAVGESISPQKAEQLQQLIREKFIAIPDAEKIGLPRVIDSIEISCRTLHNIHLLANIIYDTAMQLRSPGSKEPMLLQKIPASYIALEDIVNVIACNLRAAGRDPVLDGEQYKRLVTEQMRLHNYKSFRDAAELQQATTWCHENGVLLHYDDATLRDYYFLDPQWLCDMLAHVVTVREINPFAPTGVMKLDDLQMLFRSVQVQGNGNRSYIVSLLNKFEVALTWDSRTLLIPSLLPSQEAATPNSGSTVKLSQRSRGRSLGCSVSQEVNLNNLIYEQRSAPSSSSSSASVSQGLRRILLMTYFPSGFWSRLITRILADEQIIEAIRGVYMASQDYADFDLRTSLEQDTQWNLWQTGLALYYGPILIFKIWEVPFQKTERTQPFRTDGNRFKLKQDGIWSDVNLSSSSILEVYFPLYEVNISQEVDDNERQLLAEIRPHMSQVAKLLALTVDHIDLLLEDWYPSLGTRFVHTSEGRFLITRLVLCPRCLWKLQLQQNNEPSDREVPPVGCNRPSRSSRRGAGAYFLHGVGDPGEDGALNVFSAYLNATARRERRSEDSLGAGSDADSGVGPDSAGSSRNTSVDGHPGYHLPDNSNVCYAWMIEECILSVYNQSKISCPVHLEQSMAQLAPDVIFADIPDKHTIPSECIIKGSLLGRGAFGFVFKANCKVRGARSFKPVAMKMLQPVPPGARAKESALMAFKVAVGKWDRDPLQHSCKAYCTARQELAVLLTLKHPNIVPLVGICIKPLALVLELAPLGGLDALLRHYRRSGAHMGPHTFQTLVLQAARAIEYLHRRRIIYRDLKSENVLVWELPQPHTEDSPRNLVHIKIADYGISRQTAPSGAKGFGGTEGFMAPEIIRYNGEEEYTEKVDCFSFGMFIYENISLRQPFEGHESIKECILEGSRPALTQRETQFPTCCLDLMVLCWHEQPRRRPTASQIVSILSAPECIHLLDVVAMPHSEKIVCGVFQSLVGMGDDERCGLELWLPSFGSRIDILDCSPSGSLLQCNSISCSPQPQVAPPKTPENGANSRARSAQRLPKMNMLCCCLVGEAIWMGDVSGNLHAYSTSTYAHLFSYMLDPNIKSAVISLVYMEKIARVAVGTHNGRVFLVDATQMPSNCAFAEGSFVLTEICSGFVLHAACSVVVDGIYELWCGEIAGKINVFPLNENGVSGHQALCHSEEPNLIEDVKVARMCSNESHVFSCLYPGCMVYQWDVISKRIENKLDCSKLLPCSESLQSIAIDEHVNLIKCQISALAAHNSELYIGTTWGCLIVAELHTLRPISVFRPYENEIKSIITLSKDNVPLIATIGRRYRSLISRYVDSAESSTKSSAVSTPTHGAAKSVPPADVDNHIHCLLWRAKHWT

Columns and labels:
Rab11-YFP (Drosophila) = target: T1, Rab11-YFP (Drosophila) (UniProt O18335); assay: co-IP; lysates of transiently transfected Drosophila S2 cells in RIPA buffer with protease inhibitors; Dynabeads with rabbit anti-GFP or mouse anti-Myc; western blot with anti-Myc and anti-GFP
T1 sequence: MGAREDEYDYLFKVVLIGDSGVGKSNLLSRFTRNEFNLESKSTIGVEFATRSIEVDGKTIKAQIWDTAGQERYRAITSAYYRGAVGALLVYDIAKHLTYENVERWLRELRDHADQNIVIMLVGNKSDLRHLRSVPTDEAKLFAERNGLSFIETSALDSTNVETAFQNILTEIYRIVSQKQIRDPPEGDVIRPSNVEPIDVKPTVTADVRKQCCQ

Rab5-YFP (Drosophila) = target: T2, Rab5-YFP (Drosophila) (UniProt Q9V3I2); assay: as above
T2 sequence: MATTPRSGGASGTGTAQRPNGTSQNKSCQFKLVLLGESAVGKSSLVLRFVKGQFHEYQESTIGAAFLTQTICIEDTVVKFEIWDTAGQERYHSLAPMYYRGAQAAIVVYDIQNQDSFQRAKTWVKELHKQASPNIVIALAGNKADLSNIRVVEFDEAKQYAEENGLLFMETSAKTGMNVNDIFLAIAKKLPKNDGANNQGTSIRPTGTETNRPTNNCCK

binding (Rab11-YFP (Drosophila)): no binding
binding (Rab5-YFP (Drosophila)): binds
Substance: Drosophila Lrrk, 9myc-tagged (pMT-lrrk-9myc) (from UniProt Q9VDJ9 1-2445)
